Source: PubChem BioAssay AID1159584 (Peter MacCallum Cancer Centre, 2016)
This is a random part of about 18,000 reagents. The numbers tell different reagents against one gene apart. Not all columns of the deposit are shown. Reagent sequences are not shown. Not stated in the record: the amount of reagent, the time to read-out.

Purpose: 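Genes whose loss is lethal only together with E-cadherin loss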 (primary screen)
System: human MCF10A breast epithelial cells, parental and CDH1-null
Reagent: siRNA against human genes
Read-out: 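Cell viability by CellTiter-Glo ATP luminescence, each line scaled to the mean of mock wells across plates, then CDH1-null over parental ratio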
Reading the numbers: CDH1-null / parental viability ratio: higher = CDH1-null cells survive relatively better than parental; CDH1-null viability vs mock: higher = more viable CDH1-null cells

no.	gene	reagent	CDH1-null / parental viability ratio	CDH1-null viability vs mock (fraction of mock)
1	LCE2D	1	1	0.88
2	MOB4	1	0.85	0.68
3	ZNF358	1	0.98	0.53
4	SHOC2	1	1.47	0.94
5	POLR2A	1	1.31	0.42
6	S1PR2	1	1.25	0.84
7	GYPC	1	0.92	1.02
8	NPTX2	1	1.05	0.8
9	STOX2	1	0.87	0.78
10	ZBTB9	1	1	0.86
11	PITX3	1	0.7	0.62
12	CYP1B1	1	1.11	1
13	CDKN2AIP	1	0.94	0.96
14	PCYOX1L	1	1	0.92
15	SPRYD4	1	1.06	0.82
16	CHRNE	1	1.26	0.87
17	PLIN2	1	1.83	0.84
18	SSX6P	1	1.43	0.9
19	CYB5R1	1	0.97	0.76
20	PCDHB7	1	1.16	0.52
21	IQCH	1	0.76	0.84
22	METTL23	1	1.25	0.99
23	PITPNM3	1	0.76	0.68
24	GABRP	1	1.19	0.88
25	B4GALT5	1	1.1	0.92
26	PTGDR	1	1.18	0.86
27	PCMTD1	1	1.16	1.14
28	GRK3	1	0.91	1
29	ANKMY1	1	0.73	0.59
30	FMR1	1	1.29	0.54
31	FABP4	1	0.75	0.6
32	TRIP4	1	0.86	0.78
33	RAP1A	1	0.87	0.86
34	PGLYRP1	1	1.06	1.06

An excerpt from above, reduced to “CDH1-null viability vs mock (fraction of mock)”:
GYPC = 1.02
NPTX2 = 0.8
STOX2 = 0.78
ZBTB9 = 0.86
PITX3 = 0.62
CYP1B1 = 1
CDKN2AIP = 0.96
PCYOX1L = 0.92
SPRYD4 = 0.82
CHRNE = 0.87
PLIN2 = 0.84
SSX6P = 0.9

The list goes on:
no.	gene	reagent	CDH1-null / parental viability ratio	CDH1-null viability vs mock (fraction of mock)
35	TRIM28	1	0.62	0.48
36	MAPK8IP2	1	1.11	0.82
37	LEPR	1	0.92	0.8
38	CARD16	1	0.81	0.96
39	PLA2G2A	1	0.91	0.82
40	MS4A15	1	1.17	1.22
41	NXPH1	1	0.92	0.74
42	CCDC69	1	1.05	0.82
43	REL	1	0.96	0.86
44	LYPLA2	1	0.98	0.47
45	SLC24A4	1	0.97	0.95
46	RASSF2	1	1.09	0.62
47	PBX4	1	1	0.84
48	CDH20	1	1.06	1.02
49	UBR7	1	0.91	0.95
50	MTERF4	1	0.85	0.56
51	KLHL5	1	1.17	0.9
52	ZNF658B	1	0.93	0.92
53	OR1B1	1	0.79	0.5
54	RASD2	1	1.13	0.86
55	CUL9	1	1.02	0.96
56	HIVEP1	1	0.8	0.64
57	VAC14	1	0.77	0.62
58	H4C13	1	1.21	0.75
59	SLC30A8	1	0.98	0.84
60	SELL	1	1.34	1.02
61	HMGB3	1	0.96	0.96
62	CTNNAL1	1	0.97	0.72
63	B4GALT7	1	1.11	0.82
64	FCF1	1	1	0.64
65	VRTN	1	0.98	0.65
66	WBP2	1	1.14	1.12
67	RNF103	1	0.96	0.96
68	NAGK	1	1.12	0.86
69	SCUBE2	1	1.38	1.16
70	RMND1	1	0.57	0.46
71	MSTN	1	0.82	0.7
72	OR2G3	1	1.04	0.73
73	RBPJ	1	0.96	0.91
74	CAMSAP1	1	1.02	0.92
75	STIP1	1	1.13	1.03
76	DNHD1	1	0.96	0.78
77	DNHD1	2	1	0.86
78	WLS	1	0.84	0.58
79	OXTR	1	1.35	1
80	PSKH2	1	1.04	0.81
81	TBL2	1	1.02	0.84
82	LINC02903	1	1.04	0.8
83	FAT4	1	0.89	0.7
84	KLHL9	1	1.2	1.12
85	PSMD10	1	0.98	0.82
86	CXCL5	1	1.17	0.9
87	SPANXN1	1	0.79	0.66
